Measured data: PubChem BioAssay AID1053208 (Peter MacCallum Cancer Centre, 2014)

- Test: 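Find knock-downs that sensitise mouse osteosarcoma cells to doxorubicin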 (primary screen)
- Cell system: mouse osteosarcoma cells, early-passage culture from an engineered mouse model of fibroblastic bone tumour
- Knock-down reagent: siRNA pool against mouse genes, 40 nM
- Time to read-out: about 120 h (48 h before drug, then 72 h with drug)
- Conditions: doxorubicin 100 nM for 72 h, roughly 30-40% inhibitory dose
- Measured: 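Luminescent ATP signal taken as viability with or without 100 nM doxorubicin for 72 h; mean of two wells set against non-targeting siRNA and turned into robust z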
- Direction: viability z-score with doxorubicin and doxorubicin viability vs non-targeting: higher = more viable cells under doxorubicin; viability z-score without drug: higher = more viable cells with knock-down alone; z-score of drug to no-drug ratio: higher = less drug sensitisation by knock-down
- Rule for the call: 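a pool counts as active when its viability z-score with doxorubicin is -2 or below and its z-score without drug lies between -2 and 2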
Here is an unselected part of about 17,000 deposited reagents. In the full data, 788 (4.7%) got an active call. 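Calls rest on z-score classes alone; an extra cut-off of viability at most 70% of control was not applied to them.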 A number with no mark means an inactive call. The numbers tell different reagents against one gene apart. No sequences are given here.

no.	Target gene	reagent no.	combined z-score class	viability z-score with doxorubicin	viability z-score without drug	z-score of drug to no-drug ratio	doxorubicin viability vs non-targeting
1	Or8c9 (olfactory receptor family 8 subfamily C member 9)	1	no change with or without drug	0.67	-0.17	0.9	1
2	Slc18a2	1	low cell count with doxorubicin only (active)	-2.02	-0.34	-1.8	0.76
3	Tceal6 (transcription elongation factor A (SII)-like 6)	1	no change with or without drug	1.57	0.84	1.12	1.08
4	Nme8 (NME/NM23 family member 8)	1	no change with or without drug	0.34	0.51	0.11	0.97
5	Or7a37 (olfactory receptor family 7 subfamily A member 37)	1	no change with or without drug	-0.67	-1.01	0.11	0.88
6	Pcdhb10 (protocadherin beta 10)	1	no change with or without drug	-1.8	-1.52	-0.79	0.78
7	A930033H14Rik (RIKEN cDNA A930033H14 gene)	1	no change with or without drug	-1.12	-1.18	-0.34	0.84
8	Map2k3os (mitogen-activated protein kinase kinase 3, opposite strand)	1	no change with or without drug	0.22	1.52	-0.67	0.96
9	Cklf (chemokine-like factor)	1	no change with or without drug	-1.12	-1.85	0.22	0.84
10	Fgd4 (FYVE, RhoGEF and PH domain containing 4)	1	no change with or without drug	0.45	1.01	-0.11	0.98
11	Or8g23 (olfactory receptor family 8 subfamily G member 23)	1	no change with or without drug	-0.9	-0.51	-0.56	0.86
12	Pik3c2a	1	no change with or without drug	1.12	1.52	0.22	1.04
13	Tnfaip8 (tumor necrosis factor, alpha-induced protein 8)	1	low cell count with doxorubicin only (active)	-2.25	-1.35	-1.46	0.74
14	Cep89 (centrosomal protein 89)	1	no change with or without drug	0	0.17	0	0.94
15	Or2ag2b (olfactory receptor family 2 subfamily AG member 2B)	1	no change with or without drug	-0.34	-0.51	0.11	0.91
16	Adamts5 (ADAM metallopeptidase with thrombospondin type 1 motif 5)	1	no change with or without drug	0.34	-0.17	0.56	0.97
17	Map7 (microtubule-associated protein 7)	1	no change with or without drug	0.67	-0.17	0.9	1
18	D930030D11Rik (RIKEN cDNA D930030D11 gene)	1	no change with or without drug	-1.12	0.51	-1.35	0.84
19	Plppr4 (phospholipid phosphatase related 4)	1	no change with or without drug	0.9	-0.51	1.46	1.02
20	Vapb	1	no change with or without drug	-0.9	0	-0.79	0.86
21	Defb37 (defensin beta 37)	1	no change with or without drug	1.35	0.51	1.12	1.06
22	H2-T10 (histocompatibility 2, T region locus 10)	1	no change with or without drug	-0.9	0.17	-0.9	0.86
23	Apoc1 (apolipoprotein C-I)	1	no change with or without drug	0.67	0	0.79	1
24	Lin52 (lin-52 DREAM MuvB core complex component)	1	no change with or without drug	-0.34	0.17	-0.34	0.91
25	Tnfrsf22 (tumor necrosis factor receptor superfamily, member 22)	1	no change with or without drug	0	0.51	-0.22	0.94
26	Tnfrsf22 (tumor necrosis factor receptor superfamily, member 22)	2	no change with or without drug	-0.56	-1.52	0.56	0.89
27	Ckmt2 (creatine kinase, mitochondrial 2)	1	no change with or without drug	0.22	-0.84	1.01	0.96
28	Cdkn1b (cyclin dependent kinase inhibitor 1B)	1	no change with or without drug	0	-1.01	0.9	0.94
29	Ly6d (lymphocyte antigen 6 family member D)	1	no change with or without drug	-0.79	-0.51	-0.34	0.87
30	Ces1e (carboxylesterase 1E)	1	no change with or without drug	-1.12	0.17	-1.12	0.84
31	Tex19.2 (testis expressed gene 19.2)	1	no change with or without drug	-1.57	-0.17	-1.46	0.8
32	Cdrt4 (CMT1A duplicated region transcript 4)	1	no change with or without drug	1.12	-0.17	1.46	1.04
33	Zfp474 (zinc finger protein 474)	1	no change with or without drug	0.22	1.85	-0.79	0.96
34	Mapkapk5 (MAP kinase-activated protein kinase 5)	1	no change with or without drug	0.9	-0.51	1.46	1.02
35	Uevld (UEV and lactate/malate dehyrogenase domains)	1	no change with or without drug	0	0.17	0	0.94
36	Ran (RAN, member RAS oncogene family)	1	low cell count with and without drug	-6.52	-3.2	-5.73	0.36
37	Selenon (selenoprotein N)	1	no change with or without drug	0.22	-0.17	0.45	0.96
38	Eva1b (eva-1 homolog B)	1	no change with or without drug	1.24	1.18	0.56	1.05
39	Ddx47 (DEAD box helicase 47)	1	no change with or without drug	0.11	-0.84	0.9	0.95
40	Gpr176 (G protein-coupled receptor 176)	1	no change with or without drug	-1.35	0.84	-1.8	0.82
41	Ascc2 (activating signal cointegrator 1 complex subunit 2)	1	no change with or without drug	-0.11	0.17	-0.11	0.93
42	Bhmt (betaine-homocysteine methyltransferase)	1	high cell count without drug only	0.34	2.19	-0.9	0.97
43	Fut8 (fucosyltransferase 8)	1	no change with or without drug	-1.24	-0.17	-1.12	0.83
44	Cplx3 (complexin 3)	1	low cell count without drug only	-1.57	-2.53	0.22	0.8
45	Agrp (agouti related neuropeptide)	1	no change with or without drug	-0.45	-0.17	-0.22	0.9
46	Snapin (SNAP-associated protein)	1	no change with or without drug	0.9	0.34	0.79	1.02
47	Tppp (tubulin polymerization promoting protein)	1	no change with or without drug	1.35	-0.17	1.69	1.06
48	Vps25 (vacuolar protein sorting 25)	1	no change with or without drug	0.67	1.01	0.11	1
49	Map10 (microtubule-associated protein 10)	1	no change with or without drug	0.45	-0.84	1.24	0.98
50	Mbnl1 (muscleblind like splicing regulator 1)	1	no change with or without drug	0.34	-0.17	0.56	0.97
